Source: US10281476B2, “Methods to identify modulators of RyR calcium channels” (REGENTS OF THE UNIVERSITY OF MINNESOTA, priority 2013, dated 2019)
For at least one compound, name, drawing or mass did not settle the structure.

Test system: RyR
Experiment: Pilot FLT-FRET screen of NIH Clinical Collection 1 with D-FKBP and A-CaM near their Kd
Type: binding
Settings: preliminary screen
Description: The optimal concentration of A-CaM may vary from sarcoplasmic reticulum to cell samples, but using a concentration of A-CaM that is at or near its Kd will allow detection of enhanced CaM binding by FRET assays. Compounds that modulate CaM binding are expected to also affect RyR channel function, which can optionally be determined in secondary functional assays. […] A pilot screen of NIH Clinical Collection 1 used donor labeled FKBP and acceptor labeled CaM near their Kd.
Using the method illustrated in FIGS. 3 and 4, a preliminary screen of NIH Clinical Collection 1 (NCC1, 446 compounds) was conducted. The concentrations of A-CaM and D-FKBP were near their Kd. […] In FIG. 36, we represented the effect of compounds on FRET as E(compound)/E(control) (E/E0). Values outside the 3SD threshold (dotted line) are considered hits. Increased FRET (E/E0>1) indicates increased FKBP and/or CaM binding; decreased FRET (E/E0<1) indicates decreased FKBP and/or CaM binding.

Structure (SMILES): O=c1c2ccccc2[se]n1-c1ccccc1 [Ebselen]
- effect on FRET, E(compound)/E(control); hit = outside the 3SD threshold: hits

Structure (SMILES): CC[C@H](C)C(=O)O[C@H]1C[C@H](O)C=C2C=C[C@H](C)[C@H](CC[C@@H](O)C[C@@H](O)CC(=O)O)[C@H]21 [Pravastatin]
- effect on FRET, E(compound)/E(control); hit = outside the 3SD threshold: hits
